Measured values as given in the supplement of paper PMC8728848.
The other results are listed elsewhere or left out.

How the values were obtained:
Assay in all cases: glycan array binding signal (z-score within array); higher = stronger binding
Conditions in all cases: glycan notation: IUPAC condensed, linker removed; mutation: Y54A
[1] = target: Fuc(a1-2)[GalNAc(a1-3)]Gal(b1-3)GlcNAc(b1-3)GalNAc
Method in brief: (§1)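 The binding signal is a Z-score computed within each array and averaged over linkers. Arrays of the same protein sequence at different concentrations or buffers were also averaged together. Data originate from 3228 arrays in the Consortium for Functional Glycomics database, kept only where the protein sequence was available.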

[2] = target: Fuc(a1-2)[GalNAc(a1-3)]Gal(b1-3)GlcNAc(b1-6)GalNAc
Method in brief: as §1

[3] = target: Fuc(a1-2)[GalNAc(a1-3)]Gal(b1-4)Glc
Method in brief: as §1

[4] = target: Fuc(a1-2)[GalNAc(a1-3)]Gal(b1-4)GlcNAc
Method in brief: as §1

[5] = target: Fuc(a1-2)[GalNAc(a1-3)]Gal(b1-4)GlcNAc(b1-2)Man
Method in brief: as §1

[6] = target: Fuc(a1-2)[GalNAc(a1-3)]Gal(b1-4)GlcNAc(b1-2)Man(a1-3)[Fuc(a1-2)[GalNAc(a1-3)]Gal(b1-4)GlcNAc(b1-2)Man(a1-6)]Man(b1-4)GlcNAc(b1-4)GlcNAc
Method in brief: as §1

[7] = target: Fuc(a1-2)[GalNAc(a1-3)]Gal(b1-4)GlcNAc(b1-2)Man(a1-3)[Fuc(a1-2)[GalNAc(a1-3)]Gal(b1-4)GlcNAc(b1-2)Man(a1-6)]Man(b1-4)GlcNAc(b1-4)[Fuc(a1-6)]GlcNAc
Method in brief: as §1

[8] = target: Fuc(a1-2)[GalNAc(a1-3)]Gal(b1-4)GlcNAc(b1-3)Gal(b1-4)GlcNAc
Method in brief: as §1

[9] = target: Fuc(a1-2)[GalNAc(a1-3)]Gal(b1-4)GlcNAc(b1-3)Gal(b1-4)GlcNAc(b1-3)Gal(b1-4)GlcNAc
Method in brief: as §1

[10] = target: Fuc(a1-2)[GalNAc(a1-3)]Gal(b1-4)GlcNAc(b1-3)GalNAc
Method in brief: as §1

[11] = target: Fuc(a1-2)[GalNAc(a1-3)]Gal(b1-4)GlcNAc(b1-3)[Fuc(a1-2)[GalNAc(a1-3)]Gal(b1-4)GlcNAc(b1-6)]GalNAc
Method in brief: as §1

[12] = target: Fuc(a1-2)[GalNAc(a1-3)]Gal(b1-4)GlcNAc(b1-6)GalNAc
Method in brief: as §1

[13] = target: Fuc(a1-2)[GalNAc(a1-3)]Gal(b1-4)[Fuc(a1-3)]GlcNAc
Method in brief: as §1

[14] = target: Fuc(a1-2)[GalNAc(a1-3)]Gal(b1-4)[Fuc(a1-3)]GlcNAc(b1-3)GalNAc
Method in brief: as §1

[15] = target: Fuc(a1-2)[GalNAc(a1-4)]Gal(b1-4)GlcNAc
Method in brief: as §1

[16] = target: Fuc(a1-2)[GalNAc(b1-3)]Gal
Method in brief: as §1

Fuc(a1-3)GlcNAc = target: Fuc(a1-3)GlcNAc
Method in brief: as §1

[17] = target: Fuc(a1-3)[Gal(b1-4)]Glc6S
Method in brief: as §1

[18] = target: Fuc(a1-3)[Gal(b1-4)]GlcNAc
Method in brief: as §1

[19] = target: Fuc(a1-3)[Gal(b1-4)]GlcNAc(b1-2)Man
Method in brief: as §1

[20] = target: Fuc(a1-3)[Gal(b1-4)]GlcNAc(b1-2)Man(a1-3)[Fuc(a1-3)[Gal(b1-4)]GlcNAc(b1-2)Man(a1-6)]Man(b1-4)GlcNAc(b1-4)GlcNAc
Method in brief: as §1

[21] = target: Fuc(a1-3)[Gal(b1-4)]GlcNAc(b1-2)Man(a1-3)[Fuc(a1-3)[Gal(b1-4)]GlcNAc(b1-2)Man(a1-6)]Man(b1-4)GlcNAc(b1-4)[Fuc(a1-6)]GlcNAc
Method in brief: as §1

[22] = target: Fuc(a1-3)[Gal(b1-4)]GlcNAc(b1-3)Gal(b1-3)[Fuc(a1-4)]GlcNAc
Method in brief: as §1

[23] = target: Fuc(a1-3)[Gal(b1-4)]GlcNAc(b1-3)Gal(b1-4)[Fuc(a1-3)]GlcNAc
Method in brief: as §1

[24] = target: Fuc(a1-3)[Gal(b1-4)]GlcNAc(b1-3)Gal(b1-4)[Fuc(a1-3)]GlcNAc(b1-3)Gal(b1-4)[Fuc(a1-3)]GlcNAc
Method in brief: as §1

[25] = target: Fuc(a1-3)[Gal(b1-4)]GlcNAc(b1-3)GalNAc
Method in brief: as §1

[26] = target: Fuc(a1-3)[Gal(b1-4)]GlcNAc(b1-6)GalNAc
Method in brief: as §1

[27] = target: Fuc(a1-3)[Gal(b1-4)]GlcNAc(b1-6)[Gal(b1-3)GlcNAc(b1-3)]Gal(b1-4)Glc
Method in brief: as §1

[28] = target: Fuc(a1-3)[Gal(b1-4)]GlcNAc6S
Method in brief: as §1

[29] = target: Fuc(a1-3)[Gal3S(b1-4)]Glc
Method in brief: as §1

[30] = target: Fuc(a1-3)[Gal3S(b1-4)]GlcNAc
Method in brief: as §1

[31] = target: Fuc(a1-3)[Gal3S(b1-4)]GlcNAc6S
Method in brief: as §1

[32] = target: Fuc(a1-3)[GalNAc(b1-4)]GlcNAc
Method in brief: as §1

[33] = target: Fuc(a1-3)[GalNAc(b1-4)]GlcNAc6S
Method in brief: as §1

Fuc(a1-4)GlcNAc = target: Fuc(a1-4)GlcNAc
Method in brief: as §1

Fuc(b1-3)GlcNAc = target: Fuc(b1-3)GlcNAc
Method in brief: as §1

Gal(a1-2)Gal = target: Gal(a1-2)Gal
Method in brief: as §1

B1: CBP21 (Serratia marcescens), O83009 (protein)
chain: MNKTSRTLLSLGLLSAAMFGVSQQANAHGYVESPASRAYQCKLQLNTQCGSVQAEPQSVEGLKGFPQAGPADGHIASADKSTFFELDQQTPTRWNKLNLKTGPNSFTWKLTARHSTTSWRYFITKPNWDASQPLTRASFDLTPFCQFNDGGAIPAAQVTHQCNIPADRSGSHVILAVWDIADTANAFYQAIDVNLSK
glycan array binding signal (z-score) [1]: -0.236 | glycan array binding signal (z-score) [2]: -0.531 | glycan array binding signal (z-score) [3]: -0.678 | glycan array binding signal (z-score) [4]: 0.009 | glycan array binding signal (z-score) [5]: 0.185 | glycan array binding signal (z-score) [6]: -0.269 | glycan array binding signal (z-score) [7]: 0.185 | glycan array binding signal (z-score) [8]: -0.377 | glycan array binding signal (z-score) [9]: -0.624 | glycan array binding signal (z-score) [10]: -0.526 | glycan array binding signal (z-score) [11]: 0.347 | glycan array binding signal (z-score) [12]: 1.77 | glycan array binding signal (z-score) [13]: -0.69 | glycan array binding signal (z-score) [14]: -1.09 | glycan array binding signal (z-score) [15]: -0.648 | glycan array binding signal (z-score) [16]: 0.085 | glycan array binding signal (z-score) (Fuc(a1-3)GlcNAc): -0.555 | glycan array binding signal (z-score) [17]: 0.953 | glycan array binding signal (z-score) [18]: -0.306 | glycan array binding signal (z-score) [19]: 0.032 | glycan array binding signal (z-score) [20]: 0.281 | glycan array binding signal (z-score) [21]: -0.205 | glycan array binding signal (z-score) [22]: -0.81 | glycan array binding signal (z-score) [23]: -0.072 | glycan array binding signal (z-score) [24]: -0.249 | glycan array binding signal (z-score) [25]: 0.004 | glycan array binding signal (z-score) [26]: -0.521 | glycan array binding signal (z-score) [27]: -0.745 | glycan array binding signal (z-score) [28]: -0.341 | glycan array binding signal (z-score) [29]: 0.128 | glycan array binding signal (z-score) [30]: 0.264 | glycan array binding signal (z-score) [31]: 1.17 | glycan array binding signal (z-score) [32]: -0.176 | glycan array binding signal (z-score) [33]: -0.44 | glycan array binding signal (z-score) (Fuc(a1-4)GlcNAc): 0.112 | glycan array binding signal (z-score) (Fuc(b1-3)GlcNAc): -0.276 | glycan array binding signal (z-score) (Gal(a1-2)Gal): 1.55
